No constants are given. Whether binding was seen depends on the method and setting. For part of these data: In cells and extracts the contact can be indirect. Some results given as binding are weak or reduced against the parent protein; the word gives no strength.
What was measured:
human CD44-Fc (human) = human CD44-Fc (human) (UniProt P16070); assay: in vitro co-immunoprecipitation of rhCHI3L1 and human CD44, western blot
[1] = target: UniProt A0A0A0MQF6_MOUSE (mouse); assay: anti-His co-IP of rCHI3L1 from Kupffer cell lysate, MS; listed under 'proteins bound to CHI3L1'
mouse CD44 (mouse) [2] = target: T1, mouse CD44 (mouse) (UniProt P15379); assay: as above
T1 sequence (looked up): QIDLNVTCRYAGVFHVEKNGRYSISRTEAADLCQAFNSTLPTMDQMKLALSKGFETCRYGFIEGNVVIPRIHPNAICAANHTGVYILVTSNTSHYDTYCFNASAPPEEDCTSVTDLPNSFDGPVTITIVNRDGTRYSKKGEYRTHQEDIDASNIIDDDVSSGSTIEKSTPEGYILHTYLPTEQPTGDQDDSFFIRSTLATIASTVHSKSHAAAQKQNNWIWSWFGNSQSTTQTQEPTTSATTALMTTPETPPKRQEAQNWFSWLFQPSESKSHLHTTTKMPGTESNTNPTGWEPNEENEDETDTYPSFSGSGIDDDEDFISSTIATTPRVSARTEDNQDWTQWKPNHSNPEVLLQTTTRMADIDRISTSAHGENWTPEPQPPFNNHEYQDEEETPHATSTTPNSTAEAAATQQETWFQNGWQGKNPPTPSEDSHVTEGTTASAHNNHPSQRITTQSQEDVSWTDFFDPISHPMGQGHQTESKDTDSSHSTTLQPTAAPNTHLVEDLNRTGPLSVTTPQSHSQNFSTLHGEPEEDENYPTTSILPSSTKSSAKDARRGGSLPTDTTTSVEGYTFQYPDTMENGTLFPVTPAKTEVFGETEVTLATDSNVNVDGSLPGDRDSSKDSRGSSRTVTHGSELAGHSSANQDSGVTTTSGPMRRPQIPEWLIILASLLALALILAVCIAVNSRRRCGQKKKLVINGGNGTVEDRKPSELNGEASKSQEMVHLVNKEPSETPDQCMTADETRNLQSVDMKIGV

By UniProt entry, the sequences of proteins in these tests, tags left out. Where a name states a change or a piece, a line headed by the entry shows the natural chain unless it says otherwise. Residues count along the entry.
UniProt P16070, residues 21-220: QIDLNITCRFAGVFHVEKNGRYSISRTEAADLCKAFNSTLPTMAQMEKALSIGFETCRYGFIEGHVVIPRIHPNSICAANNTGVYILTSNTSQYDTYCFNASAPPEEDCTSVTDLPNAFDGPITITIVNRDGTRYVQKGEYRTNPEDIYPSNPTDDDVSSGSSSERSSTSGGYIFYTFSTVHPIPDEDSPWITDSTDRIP
UniProt A0A0A0MQF6: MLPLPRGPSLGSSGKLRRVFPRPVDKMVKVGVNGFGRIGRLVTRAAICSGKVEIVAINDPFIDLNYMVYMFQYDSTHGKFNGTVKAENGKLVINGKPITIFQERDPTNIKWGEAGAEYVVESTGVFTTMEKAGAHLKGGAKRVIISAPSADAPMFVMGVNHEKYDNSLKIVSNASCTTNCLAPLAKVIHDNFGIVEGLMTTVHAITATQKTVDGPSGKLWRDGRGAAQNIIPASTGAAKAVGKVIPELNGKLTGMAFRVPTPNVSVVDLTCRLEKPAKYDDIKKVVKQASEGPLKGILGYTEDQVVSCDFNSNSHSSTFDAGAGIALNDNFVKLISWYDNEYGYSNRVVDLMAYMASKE
UniProt P36222, residues 22-383: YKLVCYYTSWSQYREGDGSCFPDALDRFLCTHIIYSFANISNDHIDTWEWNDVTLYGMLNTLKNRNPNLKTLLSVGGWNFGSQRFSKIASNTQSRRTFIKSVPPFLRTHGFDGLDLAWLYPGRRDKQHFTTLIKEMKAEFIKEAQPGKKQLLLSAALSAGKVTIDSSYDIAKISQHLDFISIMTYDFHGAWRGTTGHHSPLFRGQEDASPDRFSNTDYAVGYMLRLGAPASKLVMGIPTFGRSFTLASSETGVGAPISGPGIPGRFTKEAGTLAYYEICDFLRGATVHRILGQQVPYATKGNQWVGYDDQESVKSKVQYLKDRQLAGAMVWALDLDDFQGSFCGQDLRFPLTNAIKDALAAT
UniProt Q61362, residues 30-389: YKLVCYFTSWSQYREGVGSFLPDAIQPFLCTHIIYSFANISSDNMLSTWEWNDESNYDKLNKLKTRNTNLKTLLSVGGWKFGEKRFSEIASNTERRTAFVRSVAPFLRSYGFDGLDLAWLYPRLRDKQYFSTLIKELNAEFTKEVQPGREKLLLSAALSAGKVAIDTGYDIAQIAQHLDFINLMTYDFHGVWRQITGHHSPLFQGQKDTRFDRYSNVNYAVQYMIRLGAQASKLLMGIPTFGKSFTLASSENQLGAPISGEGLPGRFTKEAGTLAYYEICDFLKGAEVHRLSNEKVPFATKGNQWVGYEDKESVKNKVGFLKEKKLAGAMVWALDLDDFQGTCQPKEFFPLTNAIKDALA

[3] = target: T2, UniProt Q3TQD9_MOUSE (mouse); assay: as above
T2 sequence: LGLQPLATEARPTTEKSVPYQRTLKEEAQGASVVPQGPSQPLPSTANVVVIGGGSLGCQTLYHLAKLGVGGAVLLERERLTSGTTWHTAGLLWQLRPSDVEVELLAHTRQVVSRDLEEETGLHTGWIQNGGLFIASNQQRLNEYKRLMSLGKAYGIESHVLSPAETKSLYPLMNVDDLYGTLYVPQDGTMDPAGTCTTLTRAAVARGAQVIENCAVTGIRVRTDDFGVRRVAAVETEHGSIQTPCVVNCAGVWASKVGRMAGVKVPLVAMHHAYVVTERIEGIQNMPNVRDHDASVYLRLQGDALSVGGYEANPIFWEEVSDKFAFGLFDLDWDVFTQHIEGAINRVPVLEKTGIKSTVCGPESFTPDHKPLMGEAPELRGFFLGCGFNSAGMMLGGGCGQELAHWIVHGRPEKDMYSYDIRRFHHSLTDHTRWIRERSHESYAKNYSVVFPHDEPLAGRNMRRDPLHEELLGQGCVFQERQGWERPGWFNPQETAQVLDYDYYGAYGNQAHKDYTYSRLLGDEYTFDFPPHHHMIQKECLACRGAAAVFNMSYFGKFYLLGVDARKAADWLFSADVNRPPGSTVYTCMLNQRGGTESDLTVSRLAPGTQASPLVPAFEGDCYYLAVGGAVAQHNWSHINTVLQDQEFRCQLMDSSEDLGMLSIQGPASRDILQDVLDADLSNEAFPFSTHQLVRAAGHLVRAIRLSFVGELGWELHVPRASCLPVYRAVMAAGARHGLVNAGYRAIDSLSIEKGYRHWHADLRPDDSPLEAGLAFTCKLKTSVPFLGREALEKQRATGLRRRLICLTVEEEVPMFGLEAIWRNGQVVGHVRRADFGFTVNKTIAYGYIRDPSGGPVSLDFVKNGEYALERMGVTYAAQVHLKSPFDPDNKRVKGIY

mouse CD44 (mouse) [4] = target: T1, mouse CD44 (mouse); assay: mouse liver non-parenchymal cells incubated with His-tagged rCHI3L1, binding to cells (FIG. 3D); bound only to Kupffer cells, which carry CD44
mouse CD44 (mouse) [5] = target: T1, mouse CD44 (mouse); assay: co-immunoprecipitation with anti-CD44 antibody from mouse liver homogenates incubated with rCHI3L1, western blot

Measured: binding

recombinant human CHI3L1 (from UniProt P36222 22-383) (ligand)
binds: human CD44-Fc (human)

recombinant mouse CHI3L1 (from UniProt Q61362 30-389) (ligand)
not listed: human CD44-Fc (human)
binds: all other assays above

From patent US20240294670A1
